Laboratory results published in PMC9162485.
Results are given in words; binding and its absence hold for the method and conditions named. Binding seen in cells or lysates may run through a third protein. Some results given as binding are weak or reduced against the parent protein; the word gives no strength.

Molecular target: p62 (exogenous, tag not printed for the experiment) (UniProt Q13501)
Assay: co-IP

Substance: SARS-CoV-2 NSP5 (main protease) (from UniProt P0DTD1 3264-3569) (enzyme)
- binding: binds
